# Laboratory results taken from PubChem BioAssay AID1347076 (National Center for Advancing Translational Sciences (NCATS), 2019).
# In all, about 400,000 compounds went through this assay and about 13,000 (3.2%) were called active. Inconclusive means that the source gave no clear call. Such entries were picked first, then a sample of the others. Calls come from the whole dose curve; as a rule, active = well fitted cell-killing curve with a large enough effect; inconclusive = small, poorly fitted or top-dose-only effect, or effect the other way; inactive = flat fitted curve, though single readings scatter. A potency beside an inconclusive call is a rough fit, not a confirmed value.
# Experiment: qHTS assay for MDR1-selective chemotherapeutics: Primary screen using the drug-selected MDR subline cells KB-V1; note: nearly all actives have a fitted effect of over 60% in size
# Conditions: KB-V1 MDR cells viability, CellTiter-Glo, 72 h; series mostly up to 46.1 µM
# Summary of the method: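 KB-V1, DMEM (no phenol red) + 10% FBS; cpd pin-transferred, titration series; 72 h, 37 degrees C; CellTiter-Glo, luminescence. Data normalized, curve-fit.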
# Potency is the fitted concentration of half-maximal effect.
row,Compound,Potency
1,Cc1nc(Cn2c3ccc(NC(=S)NC4CCCCC4)cc3c(=O)n2C)cs1,inactive
2,COc1ccc(Cl)cc1NC(=O)CCN1C(=O)C2C3C=CC(C4CC34)C2C1=O (centres undefined),"inconclusive: 4.11 µM [cytotoxic, full curve]"
3,CC1CCCCN1S(=O)(=O)Cc1ccccc1Cl (centres undefined),inactive
4,Cc1ccc(-n2nc(C)c3c(C)cc(=O)n(CC(=O)NCc4ccc(OC(C)C)cc4)c32)cc1,inactive
5,NC(=O)c1c(NC(=O)c2cccc(N3C(=O)CCC3=O)c2)sc2c1CCCCC2,inactive
6,O=C(NCc1cccs1)C(=O)NCC1OCCCN1S(=O)(=O)c1ccccc1 (centres undefined),"inconclusive: 20.6 µM [cytotoxic, partial curve, poor fit]"
7,CCOc1ccc(N=C2NN=C(c3cc(C)n(CC4CCCO4)c3C)CS2)cc1 (centres undefined),"inconclusive: 29.1 µM [cytotoxic, single point]"
8,Cc1ccc(C)c(S(=O)(=O)N2CCCC2CNC(=O)c2ccc([N+](=O)[O-])cc2)c1 (centres undefined),"inconclusive: 5.8 µM [cytotoxic, partial curve]"
9,CC(C)CCNC(=O)CN(Cc1ccco1)C(=O)c1snc(C(N)=O)c1N,inactive
10,O=C(c1ccc2c(=O)n3c(nc2c1)CCCCC3)N1CCN(c2ccc(F)cc2)CC1,"inconclusive: 13 µM [cytotoxic, partial curve, poor fit]"
11,COc1ccc(NC(=O)C2CC(c3cccc(Br)c3)=NO2)cc1OC (centres undefined),"inconclusive: 29.1 µM [cytotoxic, single point]"
12,COC(=O)CC1COc2ccccc2N1C(=O)c1cccc(Cl)c1 (centres undefined),"inconclusive: 14.6 µM [cytotoxic, partial curve]"
13,CCCCNC(=S)NNC(=O)CCn1nc(C)c(Br)c1C,inactive
14,NNC(=O)c1cc2ccccc2cc1O,"inconclusive: 23.1 µM [cytotoxic, single point]"
15,CC(=O)c1c(C)[nH]c(C(=O)N2CCN(c3ccc(F)cc3)CC2)c1C,"inconclusive: 13 µM [cytotoxic, partial curve, poor fit]"
16,COc1ccc(NC(=O)CCc2c(C)nc3c(-c4ccccc4)c(C)nn3c2C)cc1Cl,inactive
17,CN1CCN(CCCN(Cc2cccs2)C(=S)Nc2ccc(Cl)cc2)CC1,"inconclusive: 2.31 µM [cytotoxic, partial curve]"
18,COc1ccccc1NC(=O)CN1CCN(CC(=O)Nc2ccc(OC)c(OC)c2)CC1,inactive
19,Cc1ccc(OCC(=O)NN=C2c3ccccc3-c3ccccc32)cc1,"inconclusive: 8.2 µM [cytotoxic, partial curve]"
20,NS(=O)(=O)c1ccc(N2N=C(c3ccccc3)CC2c2ccc(F)cc2)cc1 (centres undefined),"inconclusive: 9.2 µM [cytotoxic, partial curve, poor fit]"
21,O=C(NC(=S)Nc1nc2ccccc2s1)c1ccco1,"inconclusive: 18.4 µM [cytotoxic, single point]"
22,Nc1c(Cl)cc2c(c1Oc1ccccc1)C(=O)c1ccccc1C2=O,"inconclusive: 7.31 µM [cytotoxic, partial curve]"

row,Compound,Potency
1,COc1cccc(Nc2nc(C(N)CCc3ccccc3)cs2)n1 (centres undefined),"inconclusive: 29.1 µM [cytotoxic, single point]"
2,Cc1ccc(OCC(=O)Nc2c(Cl)ccc3nsnc23)cc1C,"inconclusive: 16.4 µM [cytotoxic, single point]"
3,N#CC1=C(S)N(c2ccccc2)C(c2ccc(-c3ccccc3Cl)o2)NC1=O (centres undefined),"inconclusive: 23.1 µM [rising, partial curve, poor fit]"
4,Cc1cccc2c1-c1sc(C(=O)NCCCN3CCN(c4cccc(Cl)c4)CC3)cc1CO2,inactive
5,Fc1ccc(-n2ncc3c(Nc4ccc(Oc5ccccc5)cc4)ncnc32)cc1,inactive
6,O=C(Nc1ccncc1)c1cccc(S(=O)(=O)N2CCN(c3ccc(F)cc3)CC2)c1,"inconclusive: 32.6 µM [cytotoxic, single point]"
7,CCc1nc2c(OCC3COc4ccccc4O3)cccn2c1N(C)C(=O)c1cccc(OC)c1 (centres undefined),inactive
8,CCOc1ccc(Cl)cc1S(=O)(=O)n1cnc2ccccc21,active: 4.47 µM
9,COc1ccc(NC(=O)C2CCN(c3ncnc4c3nc3n4CCCCC3)CC2)cc1Cl,inactive
10,CCN1CCN(S(=O)(=O)c2ccc(Cl)c(C(=O)NCCOc3ccc(C)cc3)c2)CC1,"inconclusive: 0.731 µM [cytotoxic, partial curve, poor fit]"
11,O=C(Cn1c(SCCOc2ccccc2Cl)nc2ccccc21)N1CCCCC1,"inconclusive: 23.1 µM [cytotoxic, single point]"
12,COc1cccc(C(C)(O)c2nc(-c3ccc(S(C)(=O)=O)cc3)cs2)c1 (centres undefined),active: 16.4 µM
13,COc1ccc(OC)c(CC(NC(C)=O)C(=O)NC2CCN(S(=O)(=O)c3ccc(NC(C)=O)cc3)CC2)c1 (centres undefined),"inconclusive: 7.31 µM [rising, partial curve]"
14,COc1ccc(C2C(C(=O)N3CCCCC3)c3ccccc3C(=O)N2C)cc1 (centres undefined),"inconclusive: 23.1 µM [cytotoxic, single point]"
15,COc1cccc(-c2nnc3n2N=C(c2cc(OC)ccc2OC)CS3)c1,inactive
16,CC(C)(C)NC(=O)CCN(/N=C/c1ccccc1O)C1=NS(=O)(=O)c2ccccc21,"inconclusive: 20.6 µM [cytotoxic, single point]"
17,OC(COc1ccc(Cl)cc1)CN1CCN(c2ccccn2)CC1 (centres undefined),inactive
18,N#Cc1c(N)nc(SCC(=O)NC2CCCCC2)c(C#N)c1-c1ccc(Cl)cc1,"inconclusive: 6.51 µM [cytotoxic, partial curve]"
19,COc1ccc(OCc2cc(C(=O)N3CCCCCCC3)no2)c(Cl)c1,"inconclusive: 18.4 µM [cytotoxic, single point]"
20,CC1CC(C)CN(CCOc2ccc(Cl)cc2Cl)C1 (centres undefined),"inconclusive: 23.1 µM [cytotoxic, single point]"
21,Cc1ccc(C)c(-n2ccnc2SCC(=O)c2c(N)n(C3CC3)c(=O)[nH]c2=O)c1,inactive
22,CCCCSCCCNC(=O)Nc1cccc(OC)c1,"inconclusive: 29.1 µM [cytotoxic, single point]"

# Part of the list above in order of formula weight, rising:
row,Compound,Potency
14,NNC(=O)c1cc2ccccc2cc1O,"inconclusive: 23.1 µM [cytotoxic, single point]"
8,CCOc1ccc(Cl)cc1S(=O)(=O)n1cnc2ccccc21,active: 4.47 µM
19,Cc1ccc(OCC(=O)NN=C2c3ccccc3-c3ccccc32)cc1,"inconclusive: 8.2 µM [cytotoxic, partial curve]"
13,CCCCNC(=S)NNC(=O)CCn1nc(C)c(Br)c1C,inactive
9,CC(C)CCNC(=O)CN(Cc1ccco1)C(=O)c1snc(C(N)=O)c1N,inactive
5,Fc1ccc(-n2ncc3c(Nc4ccc(Oc5ccccc5)cc4)ncnc32)cc1,inactive
6,O=C(NCc1cccs1)C(=O)NCC1OCCCN1S(=O)(=O)c1ccccc1 (centres undefined),"inconclusive: 20.6 µM [cytotoxic, partial curve, poor fit]"
16,COc1ccc(NC(=O)CCc2c(C)nc3c(-c4ccccc4)c(C)nn3c2C)cc1Cl,inactive
10,CCN1CCN(S(=O)(=O)c2ccc(Cl)c(C(=O)NCCOc3ccc(C)cc3)c2)CC1,"inconclusive: 0.731 µM [cytotoxic, partial curve, poor fit]"
4,Cc1cccc2c1-c1sc(C(=O)NCCCN3CCN(c4cccc(Cl)c4)CC3)cc1CO2,inactive
